Paper PMC4938514
No constants are given. Whether binding was seen depends on the method and setting. For some of these results: Binding seen in cells or lysates may run through a third protein. Some results given as binding are weak or reduced against the parent protein; the word gives no strength. For some of these results: Where a sequence is shown, tags or fusion partners need not be part of it.

T1: Sema6A-FL (full-length Semaphorin-6A), as transfected for the in situ binding and the Sema6A/PlxnA2 co-immunoprecipitations (UniProt O35464)
T1 sequence: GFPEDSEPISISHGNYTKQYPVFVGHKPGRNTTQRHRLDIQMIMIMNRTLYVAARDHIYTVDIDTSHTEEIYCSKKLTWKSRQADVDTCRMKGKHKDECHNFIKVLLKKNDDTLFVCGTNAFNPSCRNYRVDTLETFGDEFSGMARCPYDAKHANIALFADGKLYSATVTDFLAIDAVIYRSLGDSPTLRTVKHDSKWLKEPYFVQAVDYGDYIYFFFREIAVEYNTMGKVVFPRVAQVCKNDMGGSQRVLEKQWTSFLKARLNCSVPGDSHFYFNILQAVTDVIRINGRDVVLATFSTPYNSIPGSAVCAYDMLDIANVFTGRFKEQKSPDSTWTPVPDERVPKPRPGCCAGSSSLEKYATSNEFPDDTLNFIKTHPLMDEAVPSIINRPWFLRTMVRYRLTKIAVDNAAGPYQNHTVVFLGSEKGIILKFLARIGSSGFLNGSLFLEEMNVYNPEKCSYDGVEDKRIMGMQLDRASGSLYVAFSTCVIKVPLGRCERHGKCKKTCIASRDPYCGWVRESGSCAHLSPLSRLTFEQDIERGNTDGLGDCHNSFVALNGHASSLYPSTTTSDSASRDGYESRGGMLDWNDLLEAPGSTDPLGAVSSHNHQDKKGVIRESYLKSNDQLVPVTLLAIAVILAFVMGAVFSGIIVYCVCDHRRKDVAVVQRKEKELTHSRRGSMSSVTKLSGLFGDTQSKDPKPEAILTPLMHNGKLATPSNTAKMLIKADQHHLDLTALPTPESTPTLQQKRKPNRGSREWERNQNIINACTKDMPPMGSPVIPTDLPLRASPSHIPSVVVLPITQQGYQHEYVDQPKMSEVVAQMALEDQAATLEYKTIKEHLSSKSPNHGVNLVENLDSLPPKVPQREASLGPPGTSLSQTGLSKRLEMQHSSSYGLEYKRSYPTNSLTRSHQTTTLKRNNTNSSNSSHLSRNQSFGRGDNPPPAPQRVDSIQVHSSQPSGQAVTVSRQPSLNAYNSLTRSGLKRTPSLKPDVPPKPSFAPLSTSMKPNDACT


Tests used:
[1] = target: T1, Sema6A-FL (full-length Semaphorin-6A), as transfected for the in situ binding and the Sema6A/PlxnA2 co-immunoprecipitations; experiment: in situ binding of AP fusion proteins to cells; conditioned media of HEK293 cells with Sema6A-AP or PlxnA2-AP applied to COS-7 cells transfected with combinations of Sema6A and PlxnA2 constructs; bound AP seen in situ
[2] = target: endogenous PlxnA2 of mouse cerebellum (mouse (endogenous in cerebellum)) (UniProt P70207); experiment: co-IP; endogenous proteins; lysates of P5 mouse cerebellum or EGL explants (50 mM Tris pH 7.6; 1mM EDTA, 1% Triton x-100); 16h at 4°C with anti-PlexinA2
[3] = target: PlxnA2-FL (full-length Plexin-A2) (UniProt P70207); experiment: co-IP; co-transfected COS-7 cells lysed in NP-40 buffer (10mM HEPES pH 7.5; 100mM NaCl, 2mM EDTA, 0.5% NP-40); 2h at 4°C with anti-PlexinA2 or anti-Sema6A; protein A/G sepharose; blots with anti-PlxnA2 and anti-Sema6A

Binder	binding [3]	also measured
PlxnA2-EC-AP-Fc (extracellular domain of PlxnA2 fused to alkaline phosphatase) (Fc fusion, UniProt P70207 35-1237) MPQYSTFHSENRDWTFNHLTVHRRTGAVYVGAINRVYKLTGNLTIQVAHKTGPEEDNKACYPPLIVQPCSEVLTLTNNVNKLLIIDYSENRLLACGSLYQGVCKLLRLDDLFILVEPSHKKEHYLSSVNKTGTMYGVIVRSEGEDGKLFIGTAVDGKQDYFPTLSSRKLPRDPESSAMLDYELHSDFVSSLIKIPSDTLALVSHFDIFYIYGFASGGFVYFLTVQPETPDGMAINSAGDLFYTSRIVRLCKDDPKFHSYVSLPFGCTRAGVEYRLLQAAYLAKPGEALAQAFNISSDEDVLFAIFSKGQKQYHHPPDDSALCAFPIRAINLQIKERLQSCYHGEGNLELNWLLGKDVQCTKAPVPIDDNFCGLDINQPLGGSTPVEGLTLYTTSRDRLTSVASYVYNGYSVVFVGTKSGKLKKIRADGPPHGGVQYEMVSVFKDGSPILRDMAFSINQLYLYVMSERQVTRVPVESCEQYTTCGECLSSGDPHCGWCALHNMCSRRDKCQRAWEANRFAASISQCMSLEVHPNSISVSDHSRLLSLVVNDAPNLSEGIACAFGNLTEVEGQVSGSQVICISPGPKDVPVIPLDQDWFGLELQLRSKETGKIFVSTEFKFYNCSAHQLCLSCVNSAFRCHWCKYRNLCTHDPTTCSFQEGRINVSEDCPQLVPTEEILIPVGEVKPITLKARNLPQPQSGQRGYECVLSIQGAVHRVPALRFNSSSVQCQNSSYQYDGMDISNLAVDFAVVWNGNFIIDNPQDLKVHLYKCAAQRESCGLCLKADHKFECGWCSGERRCTLHQHCPSTSSPWLDWSSHNVKCSNPQITEILTVSGPPEGGTRVTIHGVNLGLDFSEIAHHVQVAGVPCTPIPGEYIIAEQIVCEMGHAVIGTTSGPVRLCIGECKPEFMTKSHQQYTFVNPSVLSLSPIRGPESGGTMVTITGHYLGAGSSVAVYLGNQTCEFYGRSMNEIVCVSPPSSNGLGPVPVSVSVDRARVDSSLQFEYIDDPRVQRIEPEWSITSGHTPLTITGFNLDVIQEPRVRVKFNGKESVNVCTVVNTTTLTCLAPSLTSDYRPGLDTVERPDEFGFLFNNVQSLLIYNDTKFIYYPNPTFELLSPTGILDQKPGSPIILKGKNLCPPASGGAKLNYTVMIGETPCTVTVSETQLLCEPPNLTGQHKVMVHVGGMVFSPGSVSVISDSLLTLP		binding [1]: binds
endogenous Sema6A of mouse cerebellum (protein, UniProt O35464 19-1031) GFPEDSEPISISHGNYTKQYPVFVGHKPGRNTTQRHRLDIQMIMIMNRTLYVAARDHIYTVDIDTSHTEEIYCSKKLTWKSRQADVDTCRMKGKHKDECHNFIKVLLKKNDDTLFVCGTNAFNPSCRNYRVDTLETFGDEFSGMARCPYDAKHANIALFADGKLYSATVTDFLAIDAVIYRSLGDSPTLRTVKHDSKWLKEPYFVQAVDYGDYIYFFFREIAVEYNTMGKVVFPRVAQVCKNDMGGSQRVLEKQWTSFLKARLNCSVPGDSHFYFNILQAVTDVIRINGRDVVLATFSTPYNSIPGSAVCAYDMLDIANVFTGRFKEQKSPDSTWTPVPDERVPKPRPGCCAGSSSLEKYATSNEFPDDTLNFIKTHPLMDEAVPSIINRPWFLRTMVRYRLTKIAVDNAAGPYQNHTVVFLGSEKGIILKFLARIGSSGFLNGSLFLEEMNVYNPEKCSYDGVEDKRIMGMQLDRASGSLYVAFSTCVIKVPLGRCERHGKCKKTCIASRDPYCGWVRESGSCAHLSPLSRLTFEQDIERGNTDGLGDCHNSFVALNGHASSLYPSTTTSDSASRDGYESRGGMLDWNDLLEAPGSTDPLGAVSSHNHQDKKGVIRESYLKSNDQLVPVTLLAIAVILAFVMGAVFSGIIVYCVCDHRRKDVAVVQRKEKELTHSRRGSMSSVTKLSGLFGDTQSKDPKPEAILTPLMHNGKLATPSNTAKMLIKADQHHLDLTALPTPESTPTLQQKRKPNRGSREWERNQNIINACTKDMPPMGSPVIPTDLPLRASPSHIPSVVVLPITQQGYQHEYVDQPKMSEVVAQMALEDQAATLEYKTIKEHLSSKSPNHGVNLVENLDSLPPKVPQREASLGPPGTSLSQTGLSKRLEMQHSSSYGLEYKRSYPTNSLTRSHQTTTLKRNNTNSSNSSHLSRNQSFGRGDNPPPAPQRVDSIQVHSSQPSGQAVTVSRQPSLNAYNSLTRSGLKRTPSLKPDVPPKPSFAPLSTSMKPNDACT		binding [2]: binds
myc-tagged Sema6A-K393D (protein, UniProt O35464 19-1031) GFPEDSEPISISHGNYTKQYPVFVGHKPGRNTTQRHRLDIQMIMIMNRTLYVAARDHIYTVDIDTSHTEEIYCSKKLTWKSRQADVDTCRMKGKHKDECHNFIKVLLKKNDDTLFVCGTNAFNPSCRNYRVDTLETFGDEFSGMARCPYDAKHANIALFADGKLYSATVTDFLAIDAVIYRSLGDSPTLRTVKHDSKWLKEPYFVQAVDYGDYIYFFFREIAVEYNTMGKVVFPRVAQVCKNDMGGSQRVLEKQWTSFLKARLNCSVPGDSHFYFNILQAVTDVIRINGRDVVLATFSTPYNSIPGSAVCAYDMLDIANVFTGRFKEQKSPDSTWTPVPDERVPKPRPGCCAGSSSLEKYATSNEFPDDTLNFIDTHPLMDEAVPSIINRPWFLRTMVRYRLTKIAVDNAAGPYQNHTVVFLGSEKGIILKFLARIGSSGFLNGSLFLEEMNVYNPEKCSYDGVEDKRIMGMQLDRASGSLYVAFSTCVIKVPLGRCERHGKCKKTCIASRDPYCGWVRESGSCAHLSPLSRLTFEQDIERGNTDGLGDCHNSFVALNGHASSLYPSTTTSDSASRDGYESRGGMLDWNDLLEAPGSTDPLGAVSSHNHQDKKGVIRESYLKSNDQLVPVTLLAIAVILAFVMGAVFSGIIVYCVCDHRRKDVAVVQRKEKELTHSRRGSMSSVTKLSGLFGDTQSKDPKPEAILTPLMHNGKLATPSNTAKMLIKADQHHLDLTALPTPESTPTLQQKRKPNRGSREWERNQNIINACTKDMPPMGSPVIPTDLPLRASPSHIPSVVVLPITQQGYQHEYVDQPKMSEVVAQMALEDQAATLEYKTIKEHLSSKSPNHGVNLVENLDSLPPKVPQREASLGPPGTSLSQTGLSKRLEMQHSSSYGLEYKRSYPTNSLTRSHQTTTLKRNNTNSSNSSHLSRNQSFGRGDNPPPAPQRVDSIQVHSSQPSGQAVTVSRQPSLNAYNSLTRSGLKRTPSLKPDVPPKPSFAPLSTSMKPNDACT	binds	
myc-tagged Sema6A-I322E (protein, UniProt O35464 19-1031) GFPEDSEPISISHGNYTKQYPVFVGHKPGRNTTQRHRLDIQMIMIMNRTLYVAARDHIYTVDIDTSHTEEIYCSKKLTWKSRQADVDTCRMKGKHKDECHNFIKVLLKKNDDTLFVCGTNAFNPSCRNYRVDTLETFGDEFSGMARCPYDAKHANIALFADGKLYSATVTDFLAIDAVIYRSLGDSPTLRTVKHDSKWLKEPYFVQAVDYGDYIYFFFREIAVEYNTMGKVVFPRVAQVCKNDMGGSQRVLEKQWTSFLKARLNCSVPGDSHFYFNILQAVTDVIRINGRDVVLATFSTPYNSEPGSAVCAYDMLDIANVFTGRFKEQKSPDSTWTPVPDERVPKPRPGCCAGSSSLEKYATSNEFPDDTLNFIKTHPLMDEAVPSIINRPWFLRTMVRYRLTKIAVDNAAGPYQNHTVVFLGSEKGIILKFLARIGSSGFLNGSLFLEEMNVYNPEKCSYDGVEDKRIMGMQLDRASGSLYVAFSTCVIKVPLGRCERHGKCKKTCIASRDPYCGWVRESGSCAHLSPLSRLTFEQDIERGNTDGLGDCHNSFVALNGHASSLYPSTTTSDSASRDGYESRGGMLDWNDLLEAPGSTDPLGAVSSHNHQDKKGVIRESYLKSNDQLVPVTLLAIAVILAFVMGAVFSGIIVYCVCDHRRKDVAVVQRKEKELTHSRRGSMSSVTKLSGLFGDTQSKDPKPEAILTPLMHNGKLATPSNTAKMLIKADQHHLDLTALPTPESTPTLQQKRKPNRGSREWERNQNIINACTKDMPPMGSPVIPTDLPLRASPSHIPSVVVLPITQQGYQHEYVDQPKMSEVVAQMALEDQAATLEYKTIKEHLSSKSPNHGVNLVENLDSLPPKVPQREASLGPPGTSLSQTGLSKRLEMQHSSSYGLEYKRSYPTNSLTRSHQTTTLKRNNTNSSNSSHLSRNQSFGRGDNPPPAPQRVDSIQVHSSQPSGQAVTVSRQPSLNAYNSLTRSGLKRTPSLKPDVPPKPSFAPLSTSMKPNDACT	binds	
